{"source": "PubChem BioAssay AID624297", "about": "(National Center for Advancing Translational Sciences (NCATS), 2012)", "note": "Screen size: about 340,000 compounds; about 6,200 (1.8%) were called active. Inconclusive results, whose numbers are uncertain, are shown with a selection of clear calls. Calls follow the shape of the dose curve; as a rule, active = well fitted activation curve with a large enough effect; inconclusive = small, poorly fitted or top-dose-only effect; inactive = no such curve, though single readings can be large or run the other way. Where the call is inconclusive, the potency comes from a doubtful curve fit. Potency is read from the fitted curve at half-maximal effect."}
{"test": "A quantitative high throughput screen for small molecules that induce DNA re-replication in SW480 colon adenocarcinoma cells; also: nearly all actives have a fitted effect of over 55% in size.", "conditions": "Hoechst DNA content imaging, 48 h; series mostly up to 46.1 µM", "how_it_was_run": "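Compounds, transferred as 23 nL by pin tool, were incubated with cells for 48 hr; DNA content per nucleus was then quantified by Hoechst staining and fluorescence plate imaging.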"}
{"smiles": "Cc1ccc2sc(N(CCCN(C)C)C(=O)CN3C(=O)c4ccccc4C3=O)nc2c1C", "Potency": "inconclusive: 29.1 µM [activator, single point]"}
{"smiles": "O=[N+]([O-])c1cccnc1Sc1ccc(F)cc1", "Potency": "inconclusive: 5.8 µM [activator, full curve, poor fit]"}
{"smiles": "Cc1ccc(S(=O)(=O)Nc2nc(C)cc(N/N=C/c3ccc(O)cc3)n2)cc1", "Potency": "inactive"}
{"smiles": "COc1ccc(C(=O)NC(=S)Nc2ccccc2F)cc1", "Potency": "inactive"}
{"smiles": "Cc1nc(C/C(=N\\N)c2ccc(O)cc2O)cs1", "Potency": "inactive"}
{"smiles": "Cc1ccc(C)c(OCCn2cc(/C=C(/C#N)C(=O)NCC3CCCO3)c3ccccc32)c1", "note": "(stereo unspecified)", "Potency": "inactive"}
{"smiles": "Cc1cccc(C(=O)OCC(=O)Nc2nnc(-c3ccccc3)o2)c1O", "Potency": "inactive"}
{"smiles": "Cc1ccnc(N2C(=O)c3cccc4c([N+](=O)[O-])ccc(c34)C2=O)c1", "Potency": "active: 3.66 µM"}
{"smiles": "Cn1cccc1/C=C1\\SC(=Nc2ccccc2)NC1=O", "Potency": "inconclusive: 2.59 µM [activator, full curve, poor fit]"}
{"smiles": "O=C(COc1ccc(C(=O)c2ccccc2)cc1)Nc1ncccc1O", "Potency": "inconclusive: 18.4 µM [activator, partial curve, poor fit]"}
{"smiles": "CCCCOc1ccc(CN(CCO)CCO)cc1[N+](=O)[O-]", "Potency": "inconclusive: 4.11 µM [activator, full curve, poor fit]"}
{"smiles": "O=S(=O)(c1cnc(Cl)c(Br)c1)N1CCN(c2ncccn2)CC1", "Potency": "inactive"}
{"smiles": "O=C(CC(=O)c1ccccc1O)c1cccc(F)c1", "Potency": "inactive"}
{"smiles": "COc1cccc(/C=C/C(=O)c2ccc(NC3=NCCCS3)cc2)c1", "Potency": "inconclusive: 23.1 µM [activator, single point]"}
{"smiles": "CCCCC(=O)N(Cc1ccc(F)cc1)C1CCS(=O)(=O)C1", "note": "(stereo unspecified)", "Potency": "inconclusive: 29.1 µM [activator, single point]"}
{"smiles": "CCCCOc1ccc(C(=O)N(C)CC(=O)Nc2ccc(C)cc2)cc1", "Potency": "inconclusive: 23.1 µM [activator, single point]"}
{"smiles": "COCCN(CC1CCCN(C2Cc3ccccc3C2)C1)C(=O)CCSC", "note": "(stereo unspecified)", "Potency": "inconclusive: 16.4 µM [activator, single point]"}
{"smiles": "CCn1cc(CNC(=O)CCSc2nc(-c3ccco3)cc(C(F)(F)F)n2)cn1", "Potency": "inconclusive: 20.6 µM [activator, single point]"}
{"smiles": "CC1CCN(C(=O)CSc2ccc(-c3ccc(F)cc3)nn2)CC1", "Potency": "inactive"}
{"smiles": "O=[N+]([O-])c1ccc(Sc2n[nH]c(-c3ccco3)n2)nc1", "Potency": "inactive"}
{"smiles": "N#C/C(=C(/O)c1ccc([N+](=O)[O-])o1)c1nc2ccccc2[nH]1", "Potency": "inconclusive: 7.31 µM [activator, single point]"}
{"smiles": "COc1ccc(N=Nc2ccc3ccccc3c2)c(O)c1", "Potency": "inactive"}
{"smiles": "CCOc1ccccc1NC(=O)CSc1cn[nH]n1", "Potency": "inactive"}
{"smiles": "CCc1nc(Nc2ccncc2)c2oc3ccccc3c2n1", "Potency": "active: 18.4 µM"}
{"smiles": "COc1ccc(-n2c(CN3CCN(c4ccc(F)cc4)CC3)nc3ccc([N+](=O)[O-])cc3c2=O)c(OC)c1", "Potency": "inconclusive: 6.31 µM [activator, single point]"}
{"smiles": "O=C1C2C(C(=O)N1/N=C/c1ccc(N3CCCCC3)o1)C1C=CC2C12CC2", "note": "(stereo unspecified)", "Potency": "inconclusive: 18.4 µM [activator, single point]"}
{"smiles": "O=C(C1CCCN(S(=O)(=O)c2cccc3cccnc23)C1)N1CCc2ccccc21", "note": "(stereo unspecified)", "Potency": "inconclusive: 18.4 µM [activator, single point]"}
{"smiles": "CCOC(=O)C1(Cc2cccc(OC)c2)CCCN(C(=O)CSC)C1", "note": "(stereo unspecified)", "Potency": "inconclusive: 4.11 µM [activator, partial curve, poor fit]"}
{"smiles": "O=C(Nc1ccc(F)cc1)c1nn(-c2ccccc2)c(=O)cc1Cl", "Potency": "inconclusive: 6.51 µM [activator, partial curve, poor fit]"}
{"smiles": "O=C(CN(C(=O)CCC(=O)Nc1nccs1)c1ccccc1F)NCc1ccc2c(c1)OCO2", "Potency": "inconclusive: 0.651 µM [activator, partial curve, poor fit]"}
{"smiles": "O=c1[nH]c(-c2ccccc2)nc2sc(-c3ccccc3)cc12", "Potency": "active: 2.91 µM"}
{"smiles": "Cc1ccc(C(=O)NC(=S)Nc2ccc(CN3CCCCC3)cc2)c(C)c1", "Potency": "inconclusive: 29.1 µM [activator, partial curve, poor fit]"}
{"smiles": "CC(C)C(=O)NC(=S)Nc1ccc(S(=O)(=O)N(C)Cc2ccccc2)cc1", "Potency": "inconclusive: 29.1 µM [activator, single point]"}
{"smiles": "Brc1cc2ccccc2[n+](Cc2ccccc2)c1", "Potency": "inconclusive: 29.1 µM [activator, single point]"}
{"smiles": "CCCCC(=NCCc1c(C)[nH]c2ccc(OC)cc12)C1=C(O)CC(c2ccccc2)CC1=O", "note": "(stereo unspecified)", "Potency": "active: 7.31 µM"}
{"smiles": "CCOC(=O)C1(Cc2cccc(OC)c2)CCCN(Cc2cc(C(C)C)n[nH]2)C1", "note": "(stereo unspecified)", "Potency": "inconclusive: 29.1 µM [activator, single point]"}
{"smiles": "Cc1cccc(OCC(=O)N(Cc2ccccc2)c2c(N)n(Cc3ccccc3)c(=O)[nH]c2=O)c1", "Potency": "inconclusive: 29.1 µM [activator, single point]"}
{"smiles": "COc1ccc(CCNc2c(C)c(C)nc3ncnn23)cc1", "Potency": "active: 8.2 µM"}
{"smiles": "CCCCCCC(C)n1[nH]c(=O)c2c(C)cc(=O)[nH]c21", "note": "(stereo unspecified)", "Potency": "inconclusive: 29.1 µM [activator, single point]"}
{"smiles": "CC(CS(=O)(=O)c1ccccc1[N+](=O)[O-])N1CCOCC1", "note": "(stereo unspecified)", "Potency": "inconclusive: 29.1 µM [activator, single point]"}
{"smiles": "CC(CCC(=O)NN)C1CCC2C3CCC4CC(O)CCC4(C)C3CCC12C", "note": "(stereo unspecified)", "Potency": "inactive"}
{"smiles": "CC(=O)N1CC=CC1(CC(C)C)C(=O)NCCc1c[nH]c2ccccc12", "note": "(stereo unspecified)", "Potency": "inconclusive: 0.0046 µM [activator, full curve, poor fit]"}
{"smiles": "COc1ccc(C(=O)C2CCCN(C/C=C/c3ccccc3OC)C2)c(OC)c1", "note": "(stereo unspecified)", "Potency": "inconclusive: 29.1 µM [activator, single point]"}
{"smiles": "Cc1ccc(O)c(C(=O)c2cc(C#N)c(=O)n(-c3c(C)n(C)n(-c4ccccc4)c3=O)c2)c1", "Potency": "inactive"}
{"smiles": "CC(C)c1ccc(-n2nc3ccc(N)cc3n2)cc1", "Potency": "active: 23.1 µM"}
{"smiles": "COc1ccc(C(=O)Nc2nc3ccccc3[nH]2)cc1", "Potency": "inconclusive: 3.26 µM [activator, single point]"}
{"smiles": "c1ccc2c(c1)OCc1cn[nH]c1-2", "Potency": "inconclusive: 18.4 µM [activator, single point]"}
{"smiles": "O=C(Cc1ccc(Cl)cc1)Nc1ccc(S(=O)(=O)Nc2ncccn2)cc1", "Potency": "inconclusive: 0.103 µM [activator, full curve, poor fit]"}
{"smiles": "CN1CCc2c(sc(NC(=O)c3cc(Cl)sc3Cl)c2C(N)=O)C1", "Potency": "inconclusive: 18.4 µM [activator, single point]"}
{"smiles": "O=C(COc1ccc2ccc(=O)oc2c1)NCCCn1ccnc1", "Potency": "inactive"}
{"smiles": "Cc1ccc(/C=C/C(=O)OC(C)C(=O)Nc2ccc(Cl)cn2)o1", "note": "(stereo unspecified)", "Potency": "inactive"}
{"smiles": "O=c1nc2scc(-c3ccccc3)n2c2ccccc12", "Potency": "inconclusive: 4.61 µM [activator, single point]"}
{"smiles": "COc1cc2c(cc1OC)CN(C(=O)CCC(=O)c1ccc(F)cc1)CC2", "Potency": "inconclusive: 18.4 µM [activator, single point]"}
{"smiles": "NC(=O)c1cnn2c(-c3cccc(C(F)(F)F)c3)ccnc12", "Potency": "inconclusive: 29.1 µM [activator, single point]"}
{"smiles": "O=C1C=C(Nc2cccnc2)c2ccccc2C1=O", "Potency": "active: 6.51 µM"}
{"smiles": "COc1cc(CC(=O)OCC(=O)Nc2ccc(Cl)c(S(=O)(=O)N(C)C)c2)cc(OC)c1OC", "Potency": "inconclusive: 29.1 µM [activator, single point]"}
{"smiles": "O=C(CN1C(=O)C2CCCCC2C1=O)Nc1nc(-c2ccccn2)cs1", "note": "(stereo unspecified)", "Potency": "inconclusive: 29.1 µM [activator, partial curve, poor fit]"}
{"smiles": "CC(=O)N1CCCC(C(=O)c2ccc3c4c(cccc24)CC3)C1", "note": "(stereo unspecified)", "Potency": "inactive"}
{"smiles": "O=C(c1ccc(COc2ccccc2Br)cc1)N1CCCCC1", "Potency": "inactive"}
{"smiles": "CCNC(=S)NC1CC2CCCC(C1)N2CCc1ccccc1", "note": "(stereo unspecified)", "Potency": "inconclusive: 6.51 µM [activator, partial curve, poor fit]"}
{"smiles": "CC1CCCCC1NC(=O)CCCn1c(=S)[nH]c2ccsc2c1=O", "note": "(stereo unspecified)", "Potency": "inconclusive: 0.058 µM [activator, full curve, poor fit]"}
{"smiles": "C=CCc1cccc(/C=N/NC(=O)C(C)Nc2ccc(C)cc2)c1O", "note": "(stereo unspecified)", "Potency": "active: 16.4 µM"}
{"smiles": "COc1cccc(/C=N/Nc2nc3ccccc3n3cnnc23)c1O", "Potency": "inconclusive: 5.8 µM [activator, full curve]"}
{"smiles": "Cc1ccc(N=Cc2cc3c(cc2O)OC(N)=C(C#N)C3c2ccccc2)cc1", "note": "(stereo unspecified)", "Potency": "inconclusive: 23.1 µM [activator, single point]"}
{"smiles": "O=C(NCc1ccco1)c1c(O)c2cccc3c2n(c1=O)CCC3", "Potency": "inconclusive: 0.103 µM [activator, full curve, poor fit]"}
{"smiles": "COCc1cc(=O)oc2cc(NC(=O)c3ccc(C(C)(C)C)cc3)ccc12", "Potency": "inconclusive: 29.1 µM [activator, single point]"}
{"smiles": "Cc1ccc(O)c(N)c1", "Potency": "inconclusive: 0.58 µM [activator, single point]"}
{"smiles": "CCOC(=O)c1csc(NC(=O)c2ccc(C#N)cc2)n1", "Potency": "inconclusive: 29.1 µM [activator, partial curve, poor fit]"}
{"smiles": "CC(=O)Nc1ccc(OCC(O)Cn2c(C)nc3ccccc32)cc1", "note": "(stereo unspecified)", "Potency": "inactive"}
{"smiles": "O=C(CCNS(=O)(=O)c1ccccc1)N1CCC(Cc2ccccc2)CC1", "Potency": "inactive"}
{"smiles": "CCC(CC)C(=O)Nc1cccc(C(=O)N2CCCCCC2)c1", "Potency": "inconclusive: 16.4 µM [activator, single point]"}
